In the experiment the target is human Hsp90α (human) (UniProt P07900). The experiment can be described thus: dynamic light scattering; 0.02mg/ml Hsp90 in a 1:1 molar ratio with bovine serum albumin, 60 minute time course; both purified.

Results are given in words; binding and its absence hold for the method and conditions named.

For “bovine serum albumin (from UniProt P02769 25-607)”, the binding entry is reported as “no binding (tested: 1:1 molar ratio, 0.02mg/ml)”.

Source of the values: paper PMC3248148.
